Laboratory results reported in paper PMC3867479.

Molecular target: T1, HMGA1 (UniProt P17096)
T1 sequence (looked up, limits assumed): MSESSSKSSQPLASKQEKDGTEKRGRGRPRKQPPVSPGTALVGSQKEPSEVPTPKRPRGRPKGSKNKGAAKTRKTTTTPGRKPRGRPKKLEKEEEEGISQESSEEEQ
Experiment: competition with a labelled probe
Details: 30-fold excess vs P5 probe, IM-9 NE; EMSA: 15 mM Hepes pH 7.9, 1 mM EDTA, 5% glycerol, 40 mM KCl, 0.5 mM DTT, poly(dI-dC), 30 min at 20 C; 6% native PAGE in 0.5x TBE; protein in an extract

“GGGAAATTCCGTGGGAAATTCCGAGCT (double strand) [PRDII oligonucleotide]”: binds.

The exact form of at least one protein or probe is not confirmed. At least one result comes from cells or an extract, where the contact may be indirect. Where a protein sequence is shown, tags need not be part of it.
